Laboratory results as given in paper PMC10776854.
Where a chain is given by its changes, count along the chain named. Results are given in words; binding and its absence hold for the method and conditions named. Binding seen in cells or lysates may run through a third protein. Some entries that bind do so weakly or less than the wild type. Sequences can lack the tags named with a protein.

Chains of the proteins cited; added tags and fusions are not shown.
UniProt Q14534: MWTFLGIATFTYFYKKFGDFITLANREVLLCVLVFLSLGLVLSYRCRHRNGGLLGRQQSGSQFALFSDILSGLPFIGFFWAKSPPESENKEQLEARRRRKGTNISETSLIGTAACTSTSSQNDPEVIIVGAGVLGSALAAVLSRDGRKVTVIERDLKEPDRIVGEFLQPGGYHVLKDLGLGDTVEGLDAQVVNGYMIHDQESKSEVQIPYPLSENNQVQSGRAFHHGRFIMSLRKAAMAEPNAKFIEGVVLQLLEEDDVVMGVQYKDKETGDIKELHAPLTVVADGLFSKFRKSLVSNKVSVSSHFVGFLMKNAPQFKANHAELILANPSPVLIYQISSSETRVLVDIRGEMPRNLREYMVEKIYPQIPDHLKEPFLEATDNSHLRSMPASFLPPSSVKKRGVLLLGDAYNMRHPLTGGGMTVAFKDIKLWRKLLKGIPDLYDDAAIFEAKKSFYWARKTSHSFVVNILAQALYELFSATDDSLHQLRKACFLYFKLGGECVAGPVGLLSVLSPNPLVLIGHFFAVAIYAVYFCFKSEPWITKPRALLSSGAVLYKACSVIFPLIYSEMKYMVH

Columns and labels:
Assay in all cases: co-IP; anti-DYKDDDDK magnetic agarose IP of MARCH6-FLAG variants from 1% digitonin lysates of K562 cells still expressing endogenous MARCH6; 4 °C, 2 h; 30 mM Tris pH 8.0, 200 mM NaCl, 2 mM DTT, washes with 0.1% digitonin; Western blot for endogenous SQLE; eight biological replicates
MARCH6-FLAG WT (human) = molecular target: T1, MARCH6-FLAG WT (human) (UniProt O60337)
T1 sequence: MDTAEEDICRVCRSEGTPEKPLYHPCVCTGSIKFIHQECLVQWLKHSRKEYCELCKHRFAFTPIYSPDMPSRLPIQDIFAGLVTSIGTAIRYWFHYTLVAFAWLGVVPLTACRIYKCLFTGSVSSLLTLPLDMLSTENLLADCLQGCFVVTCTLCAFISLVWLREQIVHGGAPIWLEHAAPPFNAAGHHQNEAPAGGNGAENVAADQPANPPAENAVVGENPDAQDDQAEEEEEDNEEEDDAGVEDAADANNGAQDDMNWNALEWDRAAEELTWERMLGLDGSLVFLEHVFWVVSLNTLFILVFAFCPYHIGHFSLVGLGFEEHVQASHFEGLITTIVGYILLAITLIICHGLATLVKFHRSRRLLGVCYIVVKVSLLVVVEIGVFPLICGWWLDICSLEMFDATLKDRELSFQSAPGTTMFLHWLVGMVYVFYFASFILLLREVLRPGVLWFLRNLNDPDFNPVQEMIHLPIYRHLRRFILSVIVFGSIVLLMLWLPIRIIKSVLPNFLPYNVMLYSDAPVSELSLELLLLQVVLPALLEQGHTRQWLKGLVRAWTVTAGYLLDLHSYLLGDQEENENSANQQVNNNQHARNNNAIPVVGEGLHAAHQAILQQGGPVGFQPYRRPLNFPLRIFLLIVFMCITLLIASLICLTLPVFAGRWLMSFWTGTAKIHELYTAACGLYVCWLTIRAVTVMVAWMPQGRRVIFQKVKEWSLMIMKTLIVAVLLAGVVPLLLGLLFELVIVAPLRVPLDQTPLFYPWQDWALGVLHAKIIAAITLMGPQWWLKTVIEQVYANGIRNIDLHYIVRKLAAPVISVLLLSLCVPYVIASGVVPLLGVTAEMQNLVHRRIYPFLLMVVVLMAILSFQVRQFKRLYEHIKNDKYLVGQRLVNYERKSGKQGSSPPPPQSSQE

[1] = molecular target: T2, MARCH6^L140A/L747A-FLAG (human) (UniProt O60337)
T2 sequence: T1 sequence with L140A, L747A

MARCH6^Y92V-FLAG (human) = molecular target: T3, MARCH6^Y92V-FLAG (human) (UniProt O60337)
T3 sequence: T1 sequence with Y92V

[2] = molecular target: T4, MARCH6^Y92V/Y96V-FLAG (human) (UniProt O60337)
T4 sequence: T1 sequence with Y92V, Y96V

MARCH6^Y96V-FLAG (human) = molecular target: T5, MARCH6^Y96V-FLAG (human) (UniProt O60337)
T5 sequence: T1 sequence with Y96V

Measured: binding

SQLE (from UniProt Q14534 1-574)
binds: all assays above
